No constants are given. Whether binding was seen depends on the method and setting. In cells and extracts the contact can be indirect. Binding calls can cover weak binding; strength is not graded here. Sequences can lack the tags named with a protein.
Legend:
[1] = molecular target: α2A-adrenergic receptor tagged with HA at its NT (UniProt P08913); assay: co-IP; HEK293 cells co-transfected with HA-α2A-AR and GFP-C1orf27; lysis in 50 mM Tris-HCl pH 7.4, 150 mM NaCl, 1% Nonidet P-40, 0.5% sodium deoxycholate, 0.1% SDS; IP with HA antibodies overnight at 4 °C, protein G dynabeads; immunoblotting
[2] = molecular target: GST fusion protein of the third intracellular loop (ICL3) of α2A-AR; assay: pull-down; purified GST fusion proteins on glutathione beads (MagneGST) incubated with HEK293 cell homogenates expressing GFP-C1orf27; 20 mM Tris-HCl pH 7.4, 140 mM NaCl, 1% Nonidet P-40, 10% glycerol, overnight at 4 °C; blot with GFP antibodies; for S296-L332 and the CT also with increasing concentrations of NaCl (binding inhibited dose-dependently); only the target purified
[3] = molecular target: GST fusion protein of the C terminus (CT) of α2A-AR; assay: as above

Chains of the proteins cited; added tags and fusions are not shown. Lines headed by an entry give the natural chain unless they say otherwise; changes in a name come on top.
UniProt P08913: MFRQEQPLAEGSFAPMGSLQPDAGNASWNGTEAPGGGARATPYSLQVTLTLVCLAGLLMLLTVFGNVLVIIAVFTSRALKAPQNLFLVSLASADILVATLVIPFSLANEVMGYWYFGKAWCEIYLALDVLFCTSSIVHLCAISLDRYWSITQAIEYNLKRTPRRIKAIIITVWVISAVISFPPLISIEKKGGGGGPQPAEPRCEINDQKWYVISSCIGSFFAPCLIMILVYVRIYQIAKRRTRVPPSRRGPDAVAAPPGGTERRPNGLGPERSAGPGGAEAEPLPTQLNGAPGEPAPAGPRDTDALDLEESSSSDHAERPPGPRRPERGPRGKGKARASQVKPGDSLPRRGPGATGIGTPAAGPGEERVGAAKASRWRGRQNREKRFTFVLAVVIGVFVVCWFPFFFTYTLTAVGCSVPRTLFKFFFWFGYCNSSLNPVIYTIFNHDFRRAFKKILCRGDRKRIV

binding [1]: binds | binding [2]: binds | binding [3]: binds
B1: C1orf27 tagged with GFP at its NT (protein, UniProt Q5SWX8 1-454)
chain: MGRTYIVEETVGQYLSNINLQGKAFVSGLLIGQCSSQKDYVILATRTPPKEEQSENLKHPKAKLDNLDEEWATEHACQVSRMLPGGLLVLGVFIITTLELANDFQNALRRLMFAVEKSINRKRLWNFTEEEVSERVTLHICASTKKIFCRTYDIHDPKSSARPADWKYQSGLSSSWLSLECTVHINIHIPLSATSVSYTLEKNTKNGLTRWAKEIENGVYLINGQVKDEDCDLLEGQKKSSRGNTQATSHSFDVRVLTQLLLNSDHRSTATVQICSGSVNLKGAVKCRAYIHSSKPKVKDAVQAVKRDILNTVADRCEMLFEDLLLNEIPEKKDSEKEFHVLPYRVFVPLPGSTVMLCDYKFDDESAEEIRDHFMEMLDHTIQIEDLEIAEETNTACMSSSMNSQASLDNTDDEQPKQPIKTTMLLKIQQNIGVIAAFTVAVLAAGISFHYFSD

— paper PMC9168726
